Measurements as given in publication PMC12005744.
These are yes or no findings as the source states them, for the method shown. Binding seen in cells or lysates may run through a third protein. Some results given as binding are weak or reduced against the parent protein; the word gives no strength. Tags and fused reporters may be left off the sequences shown.

Protein sequences, listed by entry. Tags and fused reporters are not part of them. Residues count along the entry.
UniProt P23471, residues 25-2315: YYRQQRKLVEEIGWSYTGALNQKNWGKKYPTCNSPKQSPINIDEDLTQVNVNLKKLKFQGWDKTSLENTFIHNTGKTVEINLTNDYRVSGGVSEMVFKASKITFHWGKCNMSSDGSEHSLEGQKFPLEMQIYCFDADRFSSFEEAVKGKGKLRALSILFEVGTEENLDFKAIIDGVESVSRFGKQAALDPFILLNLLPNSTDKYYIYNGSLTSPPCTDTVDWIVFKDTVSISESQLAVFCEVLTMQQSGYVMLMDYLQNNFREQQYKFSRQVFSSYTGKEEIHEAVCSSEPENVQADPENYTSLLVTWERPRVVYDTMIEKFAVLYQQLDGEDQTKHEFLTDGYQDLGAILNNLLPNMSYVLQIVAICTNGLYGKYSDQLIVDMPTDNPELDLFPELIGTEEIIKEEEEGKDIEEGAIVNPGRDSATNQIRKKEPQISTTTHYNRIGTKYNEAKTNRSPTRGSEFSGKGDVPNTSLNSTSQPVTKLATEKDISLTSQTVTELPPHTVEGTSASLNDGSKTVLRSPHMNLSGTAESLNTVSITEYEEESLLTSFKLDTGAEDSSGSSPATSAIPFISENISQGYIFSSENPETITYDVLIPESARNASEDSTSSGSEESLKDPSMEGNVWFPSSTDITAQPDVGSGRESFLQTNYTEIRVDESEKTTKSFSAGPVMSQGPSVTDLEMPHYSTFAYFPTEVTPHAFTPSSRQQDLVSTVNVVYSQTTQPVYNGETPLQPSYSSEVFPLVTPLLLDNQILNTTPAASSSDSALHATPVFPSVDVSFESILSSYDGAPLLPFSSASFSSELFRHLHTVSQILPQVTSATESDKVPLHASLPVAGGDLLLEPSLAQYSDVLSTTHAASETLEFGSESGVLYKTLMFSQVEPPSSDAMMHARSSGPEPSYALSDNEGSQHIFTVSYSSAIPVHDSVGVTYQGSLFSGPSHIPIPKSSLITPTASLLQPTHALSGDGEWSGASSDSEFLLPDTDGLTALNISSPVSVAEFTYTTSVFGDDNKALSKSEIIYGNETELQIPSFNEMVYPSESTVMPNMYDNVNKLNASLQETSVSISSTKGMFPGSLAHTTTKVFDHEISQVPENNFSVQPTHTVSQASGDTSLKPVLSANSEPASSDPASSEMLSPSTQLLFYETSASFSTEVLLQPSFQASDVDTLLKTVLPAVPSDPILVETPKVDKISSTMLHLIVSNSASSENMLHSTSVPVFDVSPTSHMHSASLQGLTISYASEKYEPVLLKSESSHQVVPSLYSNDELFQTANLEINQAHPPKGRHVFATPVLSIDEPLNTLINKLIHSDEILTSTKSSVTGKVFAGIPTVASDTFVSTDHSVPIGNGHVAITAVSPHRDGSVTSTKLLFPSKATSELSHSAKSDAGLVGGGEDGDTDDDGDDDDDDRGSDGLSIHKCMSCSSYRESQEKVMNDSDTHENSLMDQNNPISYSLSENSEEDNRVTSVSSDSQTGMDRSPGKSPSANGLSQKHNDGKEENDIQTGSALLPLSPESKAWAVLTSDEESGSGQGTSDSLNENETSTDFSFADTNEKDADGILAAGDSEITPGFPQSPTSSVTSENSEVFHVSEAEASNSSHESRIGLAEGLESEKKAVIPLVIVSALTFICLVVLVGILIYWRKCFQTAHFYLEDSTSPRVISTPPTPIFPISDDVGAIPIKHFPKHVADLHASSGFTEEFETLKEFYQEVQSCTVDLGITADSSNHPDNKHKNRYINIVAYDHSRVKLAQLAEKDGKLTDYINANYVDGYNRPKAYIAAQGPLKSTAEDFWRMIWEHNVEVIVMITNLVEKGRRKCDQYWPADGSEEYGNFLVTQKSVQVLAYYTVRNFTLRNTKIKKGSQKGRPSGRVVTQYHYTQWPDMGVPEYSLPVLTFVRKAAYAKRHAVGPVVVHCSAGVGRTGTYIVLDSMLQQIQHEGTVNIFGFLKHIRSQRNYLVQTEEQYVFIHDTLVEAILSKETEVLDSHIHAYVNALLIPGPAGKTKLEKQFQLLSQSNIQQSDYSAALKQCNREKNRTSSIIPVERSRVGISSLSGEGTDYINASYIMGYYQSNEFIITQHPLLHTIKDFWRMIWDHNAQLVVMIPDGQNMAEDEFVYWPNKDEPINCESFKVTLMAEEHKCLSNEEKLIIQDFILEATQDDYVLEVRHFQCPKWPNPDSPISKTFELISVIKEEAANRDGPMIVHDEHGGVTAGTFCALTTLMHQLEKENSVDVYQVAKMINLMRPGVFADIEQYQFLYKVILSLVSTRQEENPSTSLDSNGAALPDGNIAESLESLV

Molecular target: Z1-type protein tyrosine phosphatase receptor (PTPRZ1), Flag-tagged (human) (UniProt P23471)
Assay: co-IP; 293T cells transfected with PTPRZ1-Flag (or empty Flag vector) and PTN-TurboID-HA for 18 h; lysis in 50 mM Tris-HCl pH 8.0, 150 mM NaCl, 1 mM EDTA, 1% NP-40; anti-FLAG M2 affinity gel, 4 °C, 1.5 h; beads split into 4 parts in PBS and incubated with curcumin (0, 40, 80, 160 µM) at 37 °C for 30 min, then washed; blot for HA

binding: binds
B1: Pleiotrophin (PTN), HA-tagged, with TurboID fused behind the PTN coding sequence (ligand, UniProt P21246 33-168)
chain: GKKEKPEKKVKKSDCGEWQWSVCVPTSGDCGLGTREGTRTGAECKQTMKTQRCKIPCNWKKQFGAECKYQFQAWGECDLNTALKTRTGSLKRALHNAECQKTVTISKPCGKLTKPKPQAESKKKKKEGKKQEKMLD
